The list shows only some results of the screen, not a fair sample: it is rich in T/C values a quarter to a half above the control, in often repeated tests (any T/C) and in doses without a T/C. Other doses and runs of a compound stand elsewhere. T/C is the treated group as % of the vehicle group. Some entries give survivors of the animals treated and no T/C: the source holds a T/C of zero for them, seemingly a mark for toxic or unscored doses. Some survivor counts are full or nearly so, which does not show that the dose was tolerated: survival well below the control is almost never listed, so the zero probably covers shortened survival too. Counts of survivors are from the toxicity check (mostly the fifth day) where no day follows; animals may have died later. Schedules are NCI's codes, read here as Q, the interval in days (D) or hours (H), X, the number of doses.
System: L1210 leukemia ip in BDF1 mice, survival T/C
Assay: NCI In Vivo Anticancer Drug Screen. Data for tumor model L1210 Leukemia (intraperitoneal) in B6D2F1 (BDF1) mice
Details: T/C endpoint: mean survival time, higher T/C = longer survival
[1] = dose: 150.0 mg/kg/injection, schedule: Q01DX001 (ip), vehicle: saline
[2] = dose: 300.0 mg/kg/injection, schedule: Q01DX001 (ip), vehicle: saline
[3] = dose: 200.0 mg/kg/injection, schedule: Q01DX009 (ip), vehicle: saline with Tween-80
[4] = dose: 200.0 mg/kg/injection, schedule: Q01DX001 (ip), vehicle: saline
[5] = dose: 400.0 mg/kg/injection, schedule: Q01DX001 (ip), vehicle: saline
[6] = dose: 400.0 mg/kg/injection, schedule: Q01DX001 (ip), vehicle: Klucel (hydroxypropylcellulose) (HPC)

Question: With `O=C(O)c1c(Cl)c(Cl)c(Cl)c(Cl)c1C(=O)O.O=C(O)c1c(Cl)c(Cl)c(Cl)c(Cl)c1C(=O)O.[Pt]` as the compound, how does the survivor count (dose: 200.0 mg/kg/injection, schedule: Q04DX003 (ip), vehicle: saline sonified) read?
Answer: 2 of 6

Question: What about the survivor count (dose: 400.0 mg/kg/injection, schedule: Q04DX003 (ip), vehicle: saline sonified) of the same compound?
Answer: 1 of 6

Question: What does the source list for `CCCCCCC(CC)NCCO` (stereo not drawn)?
Answer: survivor count [1]: 0 of 6; survivor count [2]: 0 of 6

Question: What does the source list for `Nc1cncc2ccccc12`?
Answer: survivor count (dose: 200.0 mg/kg/injection, schedule: Q04DX003 (ip), vehicle: gum acacia): 1 of 6; survivor count (dose: 400.0 mg/kg/injection, schedule: Q04DX003 (ip), vehicle: gum acacia): 0 of 6

Question: With `COc1cc(/C=N/NC(=O)CNC(=O)NCc2ccccc2)ccc1O` as the compound, how does the survivor count [3] read?
Answer: 3 of 3

Question: Which survivor count (dose: 100.0 mg/kg/injection, schedule: Q04DX003 (ip), vehicle: Klucel (hydroxypropylcellulose) (HPC)) does the source give for `S=C(Nc1ccccn1)Nc1ccccn1` here?
Answer: 0 of 6

Question: `CCCCCCCCCCCC[n+]1ccc(C(N)=O)cc1` was tested. Which survivor count (dose: 75.0 mg/kg/injection, schedule: Q01DX009 (ip), vehicle: saline) did it give?
Answer: 0 of 6

Question: What about the survivor count (dose: 100.0 mg/kg/injection, schedule: Q01DX001 (ip), vehicle: saline) of the same compound?
Answer: 0 of 6

Question: What about the survivor count (dose: 115.0 mg/kg/injection, schedule: Q01DX009 (ip), vehicle: saline) of the same compound?
Answer: 0 of 6

Question: What about the survivor count [4] of the same compound?
Answer: 0 of 6

Question: And the survivor count [5]?
Answer: 0 of 6

Question: For `O=C1OC(=O)c2cccc3cccc1c23`, which survivor count (dose: 100.0 mg/kg/injection, schedule: Q01DX001 (ip), vehicle: Klucel (hydroxypropylcellulose) (HPC)) is on record?
Answer: 3 of 3

Question: And the survivor count (dose: 200.0 mg/kg/injection, schedule: Q01DX001 (ip), vehicle: Klucel (hydroxypropylcellulose) (HPC))?
Answer: 1 of 3

Question: `COc1cc2c(cc1OC)C(CCCCCCCC1NCCc3cc(OC)c(OC)cc31)NCC2` (stereo not drawn) was tested. Which survivor count (dose: 32.0 mg/kg/injection, schedule: Q01DX015 (ip), vehicle: carboxymethylcellulose (CMC)) did it give?
Answer: 1 of 6

Question: What about the survivor count (dose: 64.0 mg/kg/injection, schedule: Q01DX015 (ip), vehicle: carboxymethylcellulose (CMC)) of the same compound?
Answer: 3 of 6

Question: And the survivor count [4]?
Answer: 1 of 4

Question: And the survivor count [5]?
Answer: 0 of 4

Question: Which survivor count [3] does the source give for `C=CC[n+]1ccccc1C` here?
Answer: 0 of 3

Question: How did the survivor count (dose: 400.0 mg/kg/injection, schedule: Q01DX009 (ip), vehicle: saline) turn out when `C=CC[As](C)(=O)O` was run?
Answer: 0 of 6

Question: Which survivor count (dose: 200.0 mg/kg/injection, schedule: Q04DX002 (ip), vehicle: saline with Tween-80) does the source give for `COc1cc(C2=N/C(=C\c3cccc([N+](=O)[O-])c3)C(=O)O2)cc(OC)c1OC` here?
Answer: 3 of 3

Question: What about the survivor count (dose: 400.0 mg/kg/injection, schedule: Q04DX002 (ip), vehicle: saline with Tween-80) of the same compound?
Answer: 3 of 3

Question: How did the survivor count [6] turn out when `C/C(=N/NC(N)=S)c1ccc[nH]1` was run?
Answer: 0 of 6

Question: For `N#CC(Br)(Br)C#N`, which survivor count (dose: 50.0 mg/kg/injection, schedule: Q01DX001 (ip), vehicle: carboxymethylcellulose (CMC)) is on record?
Answer: 0 of 4

Question: What about the survivor count (dose: 100.0 mg/kg/injection, schedule: Q01DX001 (ip), vehicle: carboxymethylcellulose (CMC)) of the same compound?
Answer: 0 of 4

Question: And the survivor count (dose: 200.0 mg/kg/injection, schedule: Q01DX001 (ip), vehicle: carboxymethylcellulose (CMC))?
Answer: 0 of 4

Question: What about the survivor count (dose: 400.0 mg/kg/injection, schedule: Q01DX001 (ip), vehicle: carboxymethylcellulose (CMC)) of the same compound?
Answer: 0 of 4

Question: For `O=C(COc1ccc(Cl)c(Cl)c1)NCCc1cc[n+](Cc2ccc(Cl)c(S(=O)(=O)F)c2)cc1`, which survivor count [6] is on record?
Answer: 1 of 6

Question: For `NNC(=S)S`, which survivor count (dose: 75.0 mg/kg/injection, schedule: Q01DX001 (ip), vehicle: saline) is on record?
Answer: 0 of 6

Question: And the survivor count [1]?
Answer: 0 of 6

Question: And the survivor count [2]?
Answer: 0 of 6

Question: Which survivor count (dose: 400.0 mg/kg/injection, schedule: Q04DX002 (ip), vehicle: carboxymethylcellulose (CMC)) does the source give for `O=C(Nc1ccc(C(=O)O)c(O)c1)Nc1ccccc1C(F)(F)F` here?
Answer: 3 of 3

— PubChem BioAssay AID248 (DTP/NCI, 2004)
